US20030235857A1 (WHITEHEAD INSTITUTE FOR BIOMEDICAL RESEARCH A DELAWARE, published 2003)
No constants are given. Whether binding was seen depends on the method and setting. Some results given as binding are weak or reduced against the parent protein; the word gives no strength. Sequences can lack the tags named with a protein.

By UniProt entry, the sequences of proteins in these tests, tags left out. Where a name states a change or a piece, a line headed by the entry shows the natural chain unless it says otherwise.
UniProt P04386: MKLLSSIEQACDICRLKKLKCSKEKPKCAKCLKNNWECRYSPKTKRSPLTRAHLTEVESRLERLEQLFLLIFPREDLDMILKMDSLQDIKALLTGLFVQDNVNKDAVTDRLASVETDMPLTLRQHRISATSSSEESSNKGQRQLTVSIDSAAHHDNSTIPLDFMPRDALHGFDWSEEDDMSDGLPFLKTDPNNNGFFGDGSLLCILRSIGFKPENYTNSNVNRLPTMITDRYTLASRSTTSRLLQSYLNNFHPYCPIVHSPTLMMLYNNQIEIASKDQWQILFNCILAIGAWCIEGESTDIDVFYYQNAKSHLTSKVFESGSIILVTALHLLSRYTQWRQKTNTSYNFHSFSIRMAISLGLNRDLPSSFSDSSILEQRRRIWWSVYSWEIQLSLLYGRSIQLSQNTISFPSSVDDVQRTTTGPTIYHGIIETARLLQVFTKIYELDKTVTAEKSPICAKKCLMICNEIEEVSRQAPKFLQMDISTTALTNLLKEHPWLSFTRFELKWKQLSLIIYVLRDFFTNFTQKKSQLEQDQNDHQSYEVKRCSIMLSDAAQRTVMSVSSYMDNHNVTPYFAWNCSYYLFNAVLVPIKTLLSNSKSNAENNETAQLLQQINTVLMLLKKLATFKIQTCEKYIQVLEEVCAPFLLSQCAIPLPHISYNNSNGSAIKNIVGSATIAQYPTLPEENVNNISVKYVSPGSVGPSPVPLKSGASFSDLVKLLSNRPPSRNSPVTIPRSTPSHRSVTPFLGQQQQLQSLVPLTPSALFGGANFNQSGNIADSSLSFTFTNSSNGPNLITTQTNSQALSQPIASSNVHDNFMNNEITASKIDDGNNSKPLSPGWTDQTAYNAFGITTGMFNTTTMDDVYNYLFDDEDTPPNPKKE
UniProt P06245: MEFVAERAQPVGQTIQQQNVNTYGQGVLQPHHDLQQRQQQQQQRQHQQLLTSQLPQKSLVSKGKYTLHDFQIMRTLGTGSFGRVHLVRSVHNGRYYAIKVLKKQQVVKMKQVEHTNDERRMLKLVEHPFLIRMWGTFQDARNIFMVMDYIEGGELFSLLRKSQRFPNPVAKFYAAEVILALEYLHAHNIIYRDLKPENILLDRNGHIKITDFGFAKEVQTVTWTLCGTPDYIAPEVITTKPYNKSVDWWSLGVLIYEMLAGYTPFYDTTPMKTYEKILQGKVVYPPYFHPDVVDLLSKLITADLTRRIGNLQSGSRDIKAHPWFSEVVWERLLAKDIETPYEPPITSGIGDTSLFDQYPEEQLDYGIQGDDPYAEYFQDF
UniProt P06244: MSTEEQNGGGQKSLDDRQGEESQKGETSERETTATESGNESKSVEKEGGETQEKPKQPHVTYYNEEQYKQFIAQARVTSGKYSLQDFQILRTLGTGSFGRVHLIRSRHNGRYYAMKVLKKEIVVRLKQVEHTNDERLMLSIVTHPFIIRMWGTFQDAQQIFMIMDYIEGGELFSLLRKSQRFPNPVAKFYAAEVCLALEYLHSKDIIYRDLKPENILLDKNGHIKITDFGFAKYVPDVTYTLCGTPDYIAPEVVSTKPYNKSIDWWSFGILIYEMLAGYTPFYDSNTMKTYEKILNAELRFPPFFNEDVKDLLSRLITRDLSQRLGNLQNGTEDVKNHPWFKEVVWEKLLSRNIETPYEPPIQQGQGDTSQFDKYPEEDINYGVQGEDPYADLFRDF
UniProt P05986: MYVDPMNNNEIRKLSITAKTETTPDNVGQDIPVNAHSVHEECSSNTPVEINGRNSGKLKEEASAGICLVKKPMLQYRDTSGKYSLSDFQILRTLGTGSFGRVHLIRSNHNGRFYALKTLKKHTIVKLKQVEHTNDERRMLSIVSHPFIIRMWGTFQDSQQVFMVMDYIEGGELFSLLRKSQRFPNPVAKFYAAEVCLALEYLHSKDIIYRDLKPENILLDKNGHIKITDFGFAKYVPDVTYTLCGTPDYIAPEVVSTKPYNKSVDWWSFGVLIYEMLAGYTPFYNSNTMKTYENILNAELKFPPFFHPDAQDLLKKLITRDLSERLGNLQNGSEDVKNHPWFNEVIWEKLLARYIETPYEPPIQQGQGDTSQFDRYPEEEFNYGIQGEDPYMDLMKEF

B1: Bcy1, the negative regulatory subunit of PKA, fused to the Gal4 activation domain (protein, Saccharomyces cerevisiae, UniProt P07278 1-416, looked up, not shown: large carriers)
chain: MVSSLPKESQAELQLFQNEINAANPSDFLQFSANYFNKRLEQQRAFLKAREPEFKAKNIVLFPEPEESFSRPQSAQSQSRSRSSVMFKSPFVNEDPHSNVFKSGFNLDPHEQDTHQQAQEEQQHTREKTSTPPLPMHFNAQRRTSVSGETLQPNNFDDWTPDHYKEKSEQQLQRLEKSIRNNFLFNKLDSDSKRLVINCLEEKSVPKGATIIKQGDQGDYFYVVEKGTVDFYVNDNKVNSSGPGSSFGELALMYNSPRAATVVATSDCLLWALDRLTFRKILLGSSFKKRLMYDDLLKSMPVLKSLTTYDRAKLADALDTKIYQPGETIIREGDQGENFYLIEYGAVDVSKKGQGVINKLKDHDYFGEVALLNDLPRQATVTATKRTKVATLGKSGFQRLLGPAVDVLKLNDPTRH
B2: Sfl1 fused to the Gal4 activation domain (protein, Saccharomyces cerevisiae, UniProt P20134 1-766, looked up, not shown: large carriers)
chain: MSEEETVSAPAPASTPAPAGTDVGSGGAAAGIANAGAEGGDGAEDVKKHGSKMLVGPRPPQNAIFIHKLYQILEDESLHDLIWWTPSGLSFMIKPVERFSKALATYFKHTNITSFVRQLNIYGFHKVSHDHSSNDANSGDDANTNDDSNTHDDNSGNKNSSGDENTGGGVQEKEKSNPTKIWEFKHSSGIFKKGDIEGLKHIKRRASSRNNSSINSRKNSSNQNYDIDSGARVRPSSIQDPSTSSNSFGNFVPQIPGANNSIPEYFNNSHVTYENANHAPLESNNPEMQEQNRPPNFQDETLKHLKEINFDMVKIIESMQHFISLQHSFCSQSFTFKNVSKKKSENIVKDHQKQLQAFESDMLTFKQHVMSRAHRTIDSLCAVNAAATAASVAPAPAPTSTSAYAPKSQYEMMVPPGNQYVPQKSSSTTNIPSRFNTASVPPSQLFVQYQPQSQQHVTYAKQPAHVPNFINQPIPIQQLPPQYADTFSTPQMMHNPFASKNNNKPGNTKRTNSVLMDPLTPAASVGVQGPLNYPIMNINPSVRDYNKPVPQNMAPSPIYPINEPTTRLYSQPKMRSLGSTSSLPNDRRNSPLKLTPRSSLNEDSLYPKPRNSLKSSISGTSLSSSFTLVANNPAPIRYSQQGLLRSLNKAANCAPDSVTPLDSSVLTGPPPKNMDNLPAVSSNLINSPMNVEHSSSLSQAEPAPQIELPQPSLPTTSTTKNTGEADNSKRKGSGVYSLLNQEDSSTSSADPKTEDKAAPALKKVKM
B3: Mga1 fused to the Gal4 activation domain (other, Saccharomyces cerevisiae, UniProt P53050 1-456, looked up, not shown: large carriers)
chain: MQPKTFVHQLHAILLEPEVNKWIYWSPTDNTVFFLKPYDPNFSTHVLKRYFKHGNVNSFVRQLHMYGFHKLSHPSPDQSSANNGNVKELVEWKFTHPSGFFFKEANAGILNKIQRKSTGVGKDGKRKNILSPISVSYVDASRLNVLSQQSGPVSAREPSNMFMGSPVHYSTSQSPPHISIPQQQQSSGPYLISSLPPQQPTVNMMRRQSISARMMNSYDYPNQFSTQDSIVQPQQPQQVLSPQALSGPPMKKSGTLSSTDDLKTTSLPIVNYPMPYHPGAFAQQQQQQQQPLPTVPPYSSYSTPFPSMMNSLSNSASNSPALGVCNNNVTLPKKSNISERQALDNHIQTLKNSLSTITDLIEKHINSASQDENKTLTNDAMNKDLRTSLSLLQNSKEEIIQLESKWMSMQSVKTTALPLQETTNTSSTLTSLTSSIIPKSIPIITKGEVATKPASY
notes: also called YGR249w

What was measured:
[1] = target: T1, Gal4 DNA binding domain:Tpk2 fusion (Saccharomyces cerevisiae) (UniProt P04386+P06245); test: yeast two-hybrid, GAL4-ADE2 reporter, growth without adenine
[2] = target: Tpk1 fused to the Gal4 DNA binding domain (Saccharomyces cerevisiae) (UniProt P04386+P06244); test: as above
[3] = target: Tpk3 fused to the Gal4 DNA binding domain (Saccharomyces cerevisiae) (UniProt P04386+P05986); test: as above
[4] = target: T1, Gal4 DNA binding domain:Tpk2 fusion (Saccharomyces cerevisiae); test: yeast two-hybrid, yeast growth indicates an interaction

Binder	binding [1]	binding [2]	binding [3]	binding [4]
B1	binds	binds	binds	
B2	binds			binds
B3	binds			binds
